Assay results reported in PubChem BioAssay AID248 (DTP/NCI, 2004).
The list does not hold the whole screen: it gathers tests that were run many times, whatever their T/C, doses with no T/C, and many T/C values between a quarter and a half above the control. Other doses and runs of a compound stand elsewhere. T/C: endpoint of the treated group in % of that of the vehicle group. Some entries give survivors of the animals treated and no T/C: the source files T/C as zero there, which appears to mark a toxic dose or a test without result, not a measured value. Some survivor counts are full or nearly so, which does not show that the dose was tolerated: survival well below the control is almost never listed, so the zero probably covers shortened survival too. Survivors were counted at the toxicity check, usually on the fifth day, unless a day is given; later deaths do not show. Schedules are NCI's codes, taken here to give the interval after Q, in days (D) or hours (H), and the number of doses after X. Some entries hold several experiments; their values stand side by side, smallest first. Some molecules as drawn cover several salts, stereoisomers or complexes of the source; a dose is that of the sample tested. Where survival is the endpoint, this PubChem deposit counts one and a half times the control or more as active, and values a quarter to a half above the control carry no call in these data; other NCI protocols may use other cut-offs. Some T/C values are followed by the survivors on the day toxicity was checked, most often the fifth; where none is given, no animal had died by that day.

System: L1210 leukemia ip in BDF1 mice, survival T/C
Test: NCI In Vivo Anticancer Drug Screen. Data for tumor model L1210 Leukemia (intraperitoneal) in B6D2F1 (BDF1) mice
Settings: T/C endpoint: mean survival time, higher T/C = longer survival
[1] = dose: 400.0 mg/kg/injection, schedule: Q01DX001 (ip), vehicle: other
[2] = dose: 400.0 mg/kg/injection, schedule: Q04DX003 (ip), vehicle: Klucel (hydroxypropylcellulose) (HPC)
[3] = dose: 400.0 mg/kg/injection, schedule: Q04DX003 (ip), vehicle: saline with Tween-80
[4] = dose: 50.0 mg/kg/injection, schedule: Q01DX009 (ip), vehicle: Klucel (hydroxypropylcellulose) (HPC)
[5] = dose: 100.0 mg/kg/injection, schedule: Q01DX009 (ip), vehicle: Klucel (hydroxypropylcellulose) (HPC)
[6] = dose: 200.0 mg/kg/injection, schedule: Q01DX009 (ip), vehicle: Klucel (hydroxypropylcellulose) (HPC)
[7] = dose: 400.0 mg/kg/injection, schedule: Q01DX009 (ip), vehicle: Klucel (hydroxypropylcellulose) (HPC)
[8] = dose: 400.0 mg/kg/injection, schedule: Q01DX001 (ip), vehicle: saline
[9] = dose: 25.0 mg/kg/injection, schedule: Q01DX009 (ip), vehicle: Klucel (hydroxypropylcellulose) (HPC)

In the case of `CCCCCCCCOC(=O)C1=NC=NC1=[N+]=[N-]`, the survivor count (dose: 50.0 mg/kg/injection, schedule: Q01DX001 (ip), vehicle: other) is reported as 0 of 4, the survivor count (dose: 80.0 mg/kg/injection, schedule: Q01DX001 (ip), vehicle: other) is reported as 0 of 6 and the survivor count (dose: 100.0 mg/kg/injection, schedule: Q01DX001 (ip), vehicle: other) is reported as 0 of 4. For the same compound, the survivor count (dose: 200.0 mg/kg/injection, schedule: Q01DX001 (ip), vehicle: other) was 0 of 4 and the survivor count [1] was 0 of 4.

`N#Cc1cncc(-c2ccccc2)c1` was tested, and the survivor count (dose: 100.0 mg/kg/injection, schedule: Q04DX003 (ip), vehicle: Klucel (hydroxypropylcellulose) (HPC)) was 3 of 6, the survivor count (dose: 200.0 mg/kg/injection, schedule: Q04DX003 (ip), vehicle: Klucel (hydroxypropylcellulose) (HPC)) was 2 of 6 and the survivor count [2] was 3 of 6.

With `O=C(O)c1ccc(P(=O)(O)O)cc1[N+](=O)[O-]` the survivor count (dose: 200.0 mg/kg/injection, schedule: Q04DX003 (ip), vehicle: saline) was 5 of 6.

With `CN(C)CCCC1(O)c2ccccc2Sc2cc(Cl)ccc21` (stereo unspecified) the survivor count (dose: 100.0 mg/kg/injection, schedule: Q04DX002 (ip), vehicle: Klucel (hydroxypropylcellulose) (HPC)) was 3 of 3, the survivor count (dose: 200.0 mg/kg/injection, schedule: Q04DX002 (ip), vehicle: Klucel (hydroxypropylcellulose) (HPC)) was 3 of 3 and the survivor count (dose: 400.0 mg/kg/injection, schedule: Q04DX002 (ip), vehicle: Klucel (hydroxypropylcellulose) (HPC)) was 0 of 3.

With `CC(C)(C)CC(C)(C)c1ccc(OCCOS(=O)(=O)c2cccc([N+](=O)[O-])c2)cc1` the survivor count [3] was 5 of 6.

For `c1ccc([P+](C2=NNCC2)(c2ccccc2)c2ccccc2)cc1`, the survivor count [4] was 0 of 3, the survivor count [5] was 0 of 3 and 0 of 6 and the survivor count [6] was 0 of 6. For the same compound, the survivor count [7] was 0 of 6.

In the case of `COC(=O)C1C2CC3c4[nH]c5ccc(OC)cc5c4CCN3CC2CC(OC(=O)c2cc(OC)c(OC)c(OC)c2)C1OC` (stereo unspecified), the survivor count (dose: 182.5 mg/kg/injection, schedule: Q01DX009 (ip), vehicle: Klucel (hydroxypropylcellulose) (HPC)) is reported as 5 of 6 and the survivor count (dose: 365.0 mg/kg/injection, schedule: Q01DX009 (ip), vehicle: Klucel (hydroxypropylcellulose) (HPC)) is reported as 6 of 6.

`CCCN(CCC)CCC#N` was tested, and the survivor count (dose: 267.0 mg/kg/injection, schedule: Q01DX009 (ip), vehicle: saline with Tween-80) was 2 of 6 and the survivor count [3] was 1 of 6.

For `CCN(CC)CC(Cl)COc1ccccc1C` (stereo unspecified), the survivor count [8] was 2 of 4.

With `CCCCCCC(C)OCC(=O)c1ccccc1` (stereo unspecified) the T/C (dose: 400.0 mg/kg/injection, schedule: Q04DX002 (ip), vehicle: saline) was 126 % of control.

For `Cc1cccc(C(O)C(=O)O)c1` (stereo unspecified), the survivor count (dose: 300.0 mg/kg/injection, schedule: Q01DX001 (ip), vehicle: acetone) was 0 of 6.

In the case of `O=C(O)CCCl`, the survivor count (dose: 100.0 mg/kg/injection, schedule: Q01DX001 (ip), vehicle: saline) is reported as 4 of 4, the survivor count [8] is reported as 1 of 4 and the survivor count (dose: 400.0 mg/kg/injection, schedule: Q04DX003 (ip), vehicle: saline) is reported as 1 of 6.

`O=c1[nH]c2ncccc2c(=O)n1O` was tested, and the survivor count [8] was 1 of 4.

With `Cc1cnc2c(NC(=O)CCl)nn(C)c2n1` the survivor count [6] was 0 of 6, the survivor count [7] was 0 of 6 and the survivor count [2] was 0 of 6.

In the case of `O=C(O)c1ccc(Cl)cc1Nc1ccc(F)cc1`, the survivor count [6] is reported as 6 of 6 and the survivor count [7] is reported as 6 of 6.

With `Nc1cc(Cl)ccc1O` the survivor count [8] was 2 of 4.

With `CCCCCCCCCCCCNCCCCCCCCCCCC` the survivor count (dose: 18.0 mg/kg/injection, schedule: Q01DX009 (ip), vehicle: saline) was 3 of 6, the survivor count (dose: 25.0 mg/kg/injection, schedule: Q04DX003 (ip), vehicle: acetone) was 1 of 6 and the survivor count (dose: 28.0 mg/kg/injection, schedule: Q01DX009 (ip), vehicle: saline) was 1 of 6. For the same compound, the survivor count (dose: 40.0 mg/kg/injection, schedule: Q01DX009 (ip), vehicle: saline) was 0 of 6, the survivor count (dose: 50.0 mg/kg/injection, schedule: Q01DX001 (ip), vehicle: saline) was 0 of 6 and the survivor count (dose: 100.0 mg/kg/injection, schedule: Q01DX001 (ip), vehicle: acetone) was 2 of 6. For the same compound, the survivor count (dose: 200.0 mg/kg/injection, schedule: Q01DX001 (ip), vehicle: acetone) was 2 of 6 and the survivor count (dose: 400.0 mg/kg/injection, schedule: Q01DX001 (ip), vehicle: acetone) was 1 of 6.

In the case of `O=C(COc1ccc(Cl)c(Cl)c1)NCCc1cc[n+](Cc2ccc(S(=O)(=O)F)cc2)cc1`, the survivor count [3] is reported as 0 of 6.

In the case of `Cc1ccc(/C=N/NC(=O)c2ccncc2)cc1`, the survivor count [6] is reported as 6 of 6 and the survivor count [7] is reported as 6 of 6.

`CCCCC(CCCC)NC(C)CO` (stereo unspecified) was tested, and the survivor count (dose: 150.0 mg/kg/injection, schedule: Q01DX001 (ip), vehicle: saline) was 1 of 6 and the survivor count (dose: 300.0 mg/kg/injection, schedule: Q01DX001 (ip), vehicle: saline) was 0 of 6.

In the case of `CCCNc1ccc(C2=NCCCN2)cc1`, the survivor count (dose: 200.0 mg/kg/injection, schedule: Q01DX001 (ip), vehicle: saline) is reported as 0 of 4 and the survivor count [8] is reported as 0 of 4.

With `CCC(=O)NC` the T/C (dose: 1250.0 mg/kg/injection, schedule: Q01DX015 (ip), vehicle: water) was 147 % of control [5 of 6 alive] and the survivor count (dose: 1500.0 mg/kg/injection, schedule: Q01DX015 (ip), vehicle: water) was 6 of 6.

`CCCC(=O)CC(C)=O.CCCC(=O)CC(C)=O.[Cu]` was tested, and the survivor count [9] was 1 of 6, the survivor count (dose: 40.0 mg/kg/injection, schedule: Q04DX003 (ip), vehicle: Klucel (hydroxypropylcellulose) (HPC)) was 3 of 6 and the survivor count (dose: 80.0 mg/kg/injection, schedule: Q04DX003 (ip), vehicle: Klucel (hydroxypropylcellulose) (HPC)) was 0 of 6. The survivor count (dose: 160.0 mg/kg/injection, schedule: Q04DX003 (ip), vehicle: Klucel (hydroxypropylcellulose) (HPC)) was 0 of 6.

For `CCCN(C)N=Nc1ccccc1C(N)=O`, the T/C (dose: 100.0 mg/kg/injection, schedule: Q01DX009 (ip), vehicle: saline with Tween-80) was 131 and 134 % of control and the T/C [1] was 140 % of control.

For `Cc1ccc2c3csc4ccccc4c-3nc2c1`, the survivor count (dose: 25.0 mg/kg/injection, schedule: Q01DX009 (ip), vehicle: saline) was 0 of 6 and the survivor count (dose: 50.0 mg/kg/injection, schedule: Q04DX003 (ip), vehicle: saline) was 5 of 6.

`Cc1nnc2c3ccccc3ccn12` was tested, and the survivor count [8] was 0 of 4.

For `N#CC1(C#N)C2C=CC(C3CC=CC32)C1(C#N)C#N` (stereo unspecified), the survivor count (dose: 50.0 mg/kg/injection, schedule: Q01DX009 (ip), vehicle: saline with Tween-80) was 2 of 6, the survivor count (dose: 100.0 mg/kg/injection, schedule: Q04DX003 (ip), vehicle: saline with Tween-80) was 4 of 6 and the survivor count (dose: 200.0 mg/kg/injection, schedule: Q04DX003 (ip), vehicle: saline with Tween-80) was 5 of 6. For the same compound, the survivor count [3] was 0 of 6.

In the case of `O=C(Nc1ccc2c(c1)OCO2)O/N=C1\C(=O)Nc2ccccc21`, the survivor count (dose: 200.0 mg/kg/injection, schedule: Q01DX009 (ip), vehicle: saline) is reported as 5 of 6.

In the case of `Cn1c(=O)c2c(ncn2C)n(C)c1=O`, the survivor count [8] is reported as 0 of 6, the survivor count (dose: 400.0 mg/kg/injection, schedule: Q01DX009 (ip), vehicle: saline with Tween-80) is reported as 0 of 6 and the survivor count (dose: 800.0 mg/kg/injection, schedule: Q01DX001 (ip), vehicle: saline) is reported as 1 of 6. For the same compound, the survivor count (dose: 1200.0 mg/kg/injection, schedule: Q01DX001 (ip), vehicle: saline) was 0 of 6 and the survivor count (dose: 1600.0 mg/kg/injection, schedule: Q01DX001 (ip), vehicle: saline) was 0 of 6.

For `C(=P(c1ccccc1)(c1ccccc1)c1ccccc1)[P+](c1ccccc1)(c1ccccc1)c1ccccc1.[Br][Cu][Br]`, the survivor count (dose: 12.5 mg/kg/injection, schedule: Q01DX009 (ip), vehicle: Klucel (hydroxypropylcellulose) (HPC)) was 2 of 6, the survivor count [9] was 0 of 6 and the survivor count [4] was 0 of 6. The survivor count [5] was 1 of 6, the survivor count [6] was 0 of 6 and the survivor count [7] was 0 of 6.
